Values from PubChem BioAssay AID1508597 (Cure First, 2020).

Purpose: 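Genes whose silencing sensitises or protects ovarian cancer cells against rucaparib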 (primary screen)
Cell system: human ovarian carcinoma lines grown from tumours: OCI-P5x (papillary serous) and OCI-C5x (clear cell)
Knock-down reagent: siRNA pool against human genes, 1.25 pmol siRNA per well
Timing: 72 h or 96 h, depending on the cell culture
Conditions: rucaparib 20 µM (about IC30) or vehicle, present until read-out
Rucaparib or vehicle: Vehicle
Cell line: OCI-P5x (serous)
Measured: 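Luminescent ATP-based viability assay read 72 or 96 h after transfection, depending on culture, given as normalised percent viability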
Direction: viability, normalised: higher = more viable cells remaining
Rule for the call: 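a well counts as a hit if its normalised viability is under 80 percent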
Calls: active = viability under 80%; inactive = viability 80% or more
This is a random part of the about 2,100 reagents, in one setting of the screen. 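Calls flag viability under 80% in either arm, not effects specific to rucaparib; the reference for percent is not stated.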 Some reagents were tested in more than one well and are listed for each. Not given: the 100% reference.

| gene | technical replicate | viability, normalised (%) | call |
| --- | --- | --- | --- |
| TAF8 | 1 | 68.5 | active |
| TAF8 | 2 | 76.8 | active |
| TAF8 | 3 | 80 | active |
| RIOK3 | 1 | 93.7 | inactive |
| RIOK3 | 2 | 94.3 | inactive |
| RIOK3 | 3 | 84.4 | inactive |
| AGK | 1 | 69.5 | active |
| AGK | 2 | 81 | inactive |
| AGK | 3 | 75.7 | active |
| RRM2 | 1 | 43 | active |
| RRM2 | 2 | 40.5 | active |
| RRM2 | 3 | 31.8 | active |
| BRSK1 | 1 | 54.8 | active |
| BRSK1 | 2 | 65.6 | active |
| BRSK1 | 3 | 62.6 | active |

Not a retest: an excerpt of the list.
| gene | technical replicate | viability, normalised (%) | call |
| --- | --- | --- | --- |
| TAF8 | 3 | 80 | active |
| RIOK3 | 1 | 93.7 | inactive |

More entries follow:
| gene | technical replicate | viability, normalised (%) | call |
| --- | --- | --- | --- |
| UBE2I | 1 | 97.3 | inactive |
| UBE2I | 1 | 77.2 | active |
| UBE2I | 2 | 77.6 | active |
| UBE2I | 2 | 81.5 | inactive |
| UBE2I | 3 | 71.2 | active |
| UBE2I | 3 | 88.3 | inactive |
| MAP3K13 | 1 | 88.4 | inactive |
| MAP3K13 | 1 | 54.8 | active |
| MAP3K13 | 2 | 94.9 | inactive |
| MAP3K13 | 2 | 52 | active |
| MAP3K13 | 3 | 99.1 | inactive |
| MAP3K13 | 3 | 58.2 | active |
